Results are given in words; binding and its absence hold for the method and conditions named. Binding seen in cells or lysates may run through a third protein. These calls come from enrichment with a bait or labelling near it, and not all partners need be listed. Sequences can lack the tags named with a protein.
Target: T1, Dhh1−GFP (S. cerevisiae (endogenous in BY4741-derived yeast)) (UniProt P39517)
T1 sequence: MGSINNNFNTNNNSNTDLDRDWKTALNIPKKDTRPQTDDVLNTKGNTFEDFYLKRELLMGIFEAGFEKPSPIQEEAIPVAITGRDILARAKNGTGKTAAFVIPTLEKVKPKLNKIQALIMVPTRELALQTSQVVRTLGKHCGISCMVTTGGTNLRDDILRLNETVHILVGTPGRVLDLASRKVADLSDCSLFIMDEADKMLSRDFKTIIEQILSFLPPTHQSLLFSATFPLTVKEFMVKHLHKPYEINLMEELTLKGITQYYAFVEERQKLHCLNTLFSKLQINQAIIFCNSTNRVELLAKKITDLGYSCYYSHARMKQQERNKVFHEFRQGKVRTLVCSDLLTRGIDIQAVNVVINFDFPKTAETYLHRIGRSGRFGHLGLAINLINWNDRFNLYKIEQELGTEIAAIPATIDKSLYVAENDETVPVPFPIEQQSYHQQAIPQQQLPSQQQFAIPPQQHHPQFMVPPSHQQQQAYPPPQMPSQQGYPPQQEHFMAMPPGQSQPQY
Assay: affinity purification with mass spectrometry; Dhh1−GFP captured by anti-GFP IgG cross-linked to Protein-G Dynabeads from cleared lysate of cryo-ground yeast; RB buffer (30 mM K-Hepes pH 7.4, 150 mM KCl, 2 mM MgCl2, 0.2% NP-40, 0.1% Tween-20, 1 mM DTT, RNase inhibitor), 30 min at 4°; five purifications (two +glucose YPD, three 30 min −glucose YEP); hits filtered by SAINT against CRAPome controls

Binder | binding
Lsm12 (protein, UniProt P38828 1-187) MSVSLEQTLGFRIKVTNVLDVVTEGRLYSFNSSNNTLTIQTTKKNQSPQNFKVIKCTFIKHLEVIGDKPSFNSFKKQQIKPSYVNVERVEKLLKESVIASKKKELLRGKGVSAEGQFIFDQIFKTIGDTKWVAKDIIILDDVKVQPPYKVEDIKVLHEGSNQSITLIQRIVERSWEQLEQDDGRKGG | binds
Pbp4 (protein, UniProt Q07362 1-185) MTTTSTTSVDGRTSSTLKATLSASGPNSNGPTPAVLPQKPKLTGWAQAAAKALPRQQQQQQQARKDDSVAVQPANTKTKTIASTAPPANIKGSSTANGSSTNKKFKRANKQPYNREEVRSYMHKLFQSYTAGEKSHSMKTYKQVLSETASGRVSTATDWGTVSSSKNKNKKYGCLSDIAKVLRNQ | binds
Nab6 (protein, UniProt Q03735 1-1134) MSNSNSKKPVANYAYRQQQDYNGMNAMVGNPMMYHPVDFVNGAGQYGPSQHPAYYTNSPLPNIPPTPFDTAYGASLFPSHLLMGSPFVSSPNMQSGYNSARSSNLKRKAYSRPVSNHNGYNGNSNSNQNNTNNGMVTPSNYYRMGRNSFSRNNNSTRNVTHNNNKGCDTRNNSGRRTFARNNIFDDILPEMLLQRPFCINYKVLPTGDDAYRTRSLLIENVDHSIDLHSIVKNFVKSNTLESAYLIEGGKSDDSKDVETKNLSILISFLTKGDCLNFYNNILQRLSEFKTFLKSEALNLKFVCLNYDPKCLPTFIESEALTENAEEADITNGSTMISASLHHNIANKDATRSIIIEFKSPVEKSDLFKKKLQFLDRSKNKRYILESIDLVNTDVPSNQFPENYAVLTFLNISMAIEVLDYLKKYSKNLGISKCFYVSLAPLVVSSARSSVANIYEGKTSTHRLSVPSVTAGNNNDSNNNGNNNKSNMSGITTLNNNSSIGVSVYGHSNMSLTSLSSSVSLNEEIDMLATKLQGVELDGTYLEINYRDYQTPTIEEHSTHLSNVKISKTTENSRQFSQDIPSPLPLNEHMFMNDSNQSNGAIIPQQLIATPSPVSPNLQMNQRVLPNPITQSLEQNFNVSAKVASSMGSDIGNRTIYIGNINPRSKAEDICNVVRGGILQSIKYIPEKKICFVTFIEAPSAVQFYANSFIDPIVLHGNMLRVGWGHYSGPLPKLISLAVTIGASRNVYVSLPEFAFKEKFIHDPQYKKLHETLSLPDAEQLREDFSTYGDIEQINYLSDSHCCWINFMNISSAISLVEEMNKESTVQNESGEVTLKRATEEKFGGRYKGLLINYGKDRCGNINKNLIAGKNSRFYKKVKRPSYNIRLSKLEEKRRQNEIDEKEKAFDKPLNLESLGISLDAHKDNGGGETGTANNTGHENESELEAENENGNETGSFGGLGLAVASSDVKRATSDETDYEDIFNKSSGSSDSSSDVEVIMHSPSDPEYALKSQTLRSSSQTVINSKRPVKIEDEEEAVGMSQLNYRSSLRQAPPRAPSTLSYNHSKNNETPMQDIFTNGETANNRKKKRGSFARHRTIPGSDVMAQYLAQVQHSTFMYAANILGASAEDNTHPDE | binds
Sro9 (protein, UniProt P25567 1-434) MSAETAAANTATAPVPEVQEQESSKSKQVNLTPAPLPTSSPWKLAPTEIPVSTISIEDLDATRKKKNRTPTPKSSTATKWVPIKASITVSGTKRSGSKNGASNGNSNKSKNNKTAASSTSSSNANRKKKHHQHNAKKQQQMKKDGFESAVGEEDSKDATSQENGQSTQQQQPPHHRNHHHSHHHNSNGPQRRKFHNSNNAGMPQNQGFPPQFKPYQGRNARNNNNNRSKYHNHFHHNQQHPQQPMVKLQQQFYPVQPVLMAINNIARQIEYYFSEENLTVDNYLRSKLSKDGFAPLSLISKFYRVVNMSFGGDTNLILAALREIVANEAATVNVAEGTLAAKEGDNVTGEAKEPSPLDKYFVRSKSWSNWLPETFETEINIEKELVGDALDQFMISLPPVPQQEEESSTELASQEQETKEDSAPVAAGESESSL | binds
Nam7 (protein, UniProt P30771 1-971) MVGSGSHTPYDISNSPSDVNVQPATQLNSTLVEDDDVDNQLFEEAQVTETGFRSPSASDNSCAYCGIDSAKCVIKCNSCKKWFCNTKNGTSSSHIVNHLVLSHHNVVSLHPDSDLGDTVLECYNCGRKNVFLLGFVSAKSEAVVVLLCRIPCAQTKNANWDTDQWQPLIEDRQLLSWVAEQPTEEEKLKARLITPSQISKLEAKWRSNKDATINDIDAPEEQEAIPPLLLRYQDAYEYQRSYGPLIKLEADYDKQLKESQALEHISVSWSLALNNRHLASFTLSTFESNELKVAIGDEMILWYSGMQHPDWEGRGYIVRLPNSFQDTFTLELKPSKTPPPTHLTTGFTAEFIWKGTSYDRMQDALKKFAIDKKSISGYLYYKILGHQVVDISFDVPLPKEFSIPNFAQLNSSQSNAVSHVLQRPLSLIQGPPGTGKTVTSATIVYHLSKIHKDRILVCAPSNVAVDHLAAKLRDLGLKVVRLTAKSREDVESSVSNLALHNLVGRGAKGELKNLLKLKDEVGELSASDTKRFVKLVRKTEAEILNKADVVCCTCVGAGDKRLDTKFRTVLIDESTQASEPECLIPIVKGAKQVILVGDHQQLGPVILERKAADAGLKQSLFERLISLGHVPIRLEVQYRMNPYLSEFPSNMFYEGSLQNGVTIEQRTVPNSKFPWPIRGIPMMFWANYGREEISANGTSFLNRIEAMNCERIITKLFRDGVKPEQIGVITPYEGQRAYILQYMQMNGSLDKDLYIKVEVASVDAFQGREKDYIILSCVRANEQQAIGFLRDPRRLNVGLTRAKYGLVILGNPRSLARNTLWNHLLIHFREKGCLVEGTLDNLQLCTVQLVRPQPRKTERPMNAQFNVESEMGDFPKFQDFDAQSMVSFSGQIGDFGNAFVDNTELSSYINNEYWNFENFKSAFSQKQNRNEIDDRNLYQEEASHLNSNFARELQREEQKHELSKDFSNLGI | binds
Puf3 (protein, UniProt Q07807 1-879) MEMNMDMDMDMELASIVSSLSALSHSNNNGGQAAAAGIVNGGAAGSQQIGGFRRSSFTTANEVDSEILLLHGSSESSPIFKKTALSVGTAPPFSTNSKKFFGNGGNYYQYRSTDTASLSSASYNNYHTHHTAANLGKNNKVNHLLGQYSASIAGPVYYNGNDNNNSGGEGFFEKFGKSLIDGTRELESQDRPDAVNTQSQFISKSVSNASLDTQNTFEQNVESDKNFNKLNRNTTNSGSLYHSSSNSGSSASLESENAHYPKRNIWNVANTPVFRPSNNPAAVGATNVALPNQQDGPANNNFPPYMNGFPPNQFHQGPHYQNFPNYLIGSPSNFISQMISVQIPANEDTEDSNGKKKKKANRPSSVSSPSSPPNNSPFPFAYPNPMMFMPPPPLSAPQQQQQQQQQQQQEDQQQQQQQENPYIYYPTPNPIPVKMPKDEKTFKKRNNKNHPANNSNNANKQANPYLENSIPTKNTSKKNASSKSNESTANNHKSHSHSHPHSQSLQQQQQTYHRSPLLEQLRNSSSDKNSNSNMSLKDIFGHSLEFCKDQHGSRFIQRELATSPASEKEVIFNEIRDDAIELSNDVFGNYVIQKFFEFGSKIQKNTLVDQFKGNMKQLSLQMYACRVIQKALEYIDSNQRIELVLELSDSVLQMIKDQNGNHVIQKAIETIPIEKLPFILSSLTGHIYHLSTHSYGCRVIQRLLEFGSSEDQESILNELKDFIPYLIQDQYGNYVIQYVLQQDQFTNKEMVDIKQEIIETVANNVVEYSKHKFASNVVEKSILYGSKNQKDLIISKILPRDKNHALNLEDDSPMILMIKDQFANYVIQKLVNVSEGEGKKLIVIAIRAYLDKLNKSNSLGNRHLASVEKLAALVENAEV | binds

From article PMC4632068
